Results are given in words; binding and its absence hold for the method and conditions named. Binding can be weak; no strength is given. Tags and fused reporters may be left off the sequences shown.
Each binder was assayed against phosphate translocase PiT-B, recombinant His6-tagged (human) (assay: semi-native SDS-PAGE; two purified monomeric proteins co-reconstituted 1:1 in liposomes (UCP4:ANT1 also 3:1 and 1:3), regardless of lipid composition (EYPC with or without 2.5% CL); Coomassie staining; both purified).

| binding | Binder |
| --- | --- |
| binds | uncoupling protein 4 (UCP4), recombinant His6-tagged (natural protein, human, UniProt O95847 1-323, looked up, human UCP4, UniProt O95847; Cloned in pET26b(+); purified as a monomer in OG, tetramer after reconstitution in liposomes; source: E. coli BL21 (DE3) or BL21 CodonPlus (DE3)-RIPL, extracted from bacterial membranes, purified (Ni-NTA IMAC, 1% OG); not shown: pelB leader, N-terminal, cleaved; His6, N-terminal, kept) MSVPEEEERLLPLTQRWPRASKFLLSGCAATVAELATFPLDLTKTRLQMQGEAALARLGDGARESAPYRGMVRTALGIIEEEGFLKLWQGVTPAIYRHVVYSGGRMVTYEHLREVVFGKSEDEHYPLWKSVIGGMMAGVIGQFLANPTDLVKVQMQMEGKRKLEGKPLRFRGVHHAFAKILAEGGIRGLWAGWVPNIQRAALVNMGDLTTYDTVKHYLVLNTPLEDNIMTHGLSSLCSGLVASILGTPADVIKSRIMNQPRDKQGRGLLYKSSTDCLIQAVQGEGFMSLYKGFLPSWLRMTPWSMVFWLTYEKIREMSGVSPF |
| binds | uncoupling protein 2 (UCP2), recombinant His6-tagged (natural protein, human, UniProt P55851 1-309, looked up, human UCP2, UniProt P55851; Cloned in pET26b(+); purified as a monomer in OG, tetramer after reconstitution in liposomes; source: E. coli BL21 (DE3) or BL21 CodonPlus (DE3)-RIPL, extracted from bacterial membranes, purified (Ni-NTA IMAC, 1% OG); not shown: pelB leader, N-terminal, cleaved; His6, N-terminal, kept) MVGFKATDVPPTATVKFLGAGTAACIADLITFPLDTAKVRLQIQGESQGPVRATASAQYRGVMGTILTMVRTEGPRSLYNGLVAGLQRQMSFASVRIGLYDSVKQFYTKGSEHASIGSRLLAGSTTGALAVAVAQPTDVVKVRFQAQARAGGGRRYQSTVNAYKTIAREEGFRGLWKGTSPNVARNAIVNCAELVTYDLIKDALLKANLMTDDLPCHFTSAFGAGFCTTVIASPVDVVKTRYMNSALGQYSSAGHCALTMLQKEGPRAFYKGFMPSFLRLGSWNVVMFVTYEQLKRALMAACTSREAPF |
| binds | adenine nucleotide translocase 1 (ANT1), recombinant His6-tagged (natural protein, bovine, bovine ANT1, UniProt P02722; Cloned in pET26b(+); also called ADP/ATP carrier; AAC; source: E. coli BL21 (DE3) or BL21 CodonPlus (DE3)-RIPL, extracted from bacterial membranes, purified (Ni-NTA IMAC, 1% OG); not shown: pelB leader, N-terminal, cleaved; His6, N-terminal, kept) SDQALSFLKDFLAGGVAAAISKTAVAPIERVKLLLQVQHASKQISAEKQYKGIIDCVVRIPKEQGFLSFWRGNLANVIRYFPTQALNFAFKDKYKQIFLGGVDRHKQFWRYFAGNLASGGAAGATSLCFVYPLDFARTRLAADVGKGAAQREFTGLGNCITKIFKSDGLRGLYQGFNVSVQGIIIYRAAYFGVYDTAKGMLPDPKNVHIIVSWMIAQTVTAVAGLVSYPFDTVRRRMMMQSGRKGADIMYTGTVDCWRKIAKDEGPKAFFKGAWSNVLRGMGGAFVLVLYDEIKKFV |
